The results in this text go back to the supplement of paper PMC7752906.

Counter-ions that a name gives are not always drawn. The list shows a part of the results. Repeats in this data set agree poorly, so a single value says little.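 About 40 Schistosoma mansoni schistosomula per well were imaged over time in bright field and compared with 0.1% DMSO wells. A drug counts as a hit if its Mahalanobis distance reaches 2.47 or more, three standard deviations above the DMSO control mean. Degeneracy is the fraction of worms scored opaque.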

The assay relates to Schistosoma mansoni schistosomula. Put plainly: degeneracy (percent of somules classified as degenerate/opaque); higher = more parasite degeneration/death; extreme values may be limits of the assay. As to conditions: 10 µM; 72 h.
In turn, `Cc1onc(-c2ccccc2)c1-c1ccc(S(N)(=O)=O)cc1` [Valdecoxib] gave a degeneracy of 3.57%.

The compound `CN(N=O)C(=O)N[C@H]1C(O)O[C@H](CO)[C@@H](O)[C@@H]1O` (mixture of isomers) [Streptozosin] registered a degeneracy of 14.3%.

For `O=C(OC[C@H]1O[C@@H](OC(=O)c2cc(O)c(O)c(OC(=O)c3cc(O)c(O)c(O)c3)c2)[C@H](OC(=O)c2cc(O)c(O)c(OC(=O)c3cc(O)c(O)c(O)c3)c2)[C@@H](OC(=O)c2cc(O)c(O)c(OC(=O)c3cc(O)c(O)c(O)c3)c2)[C@@H]1OC(=O)c1cc(O)c(O)c(OC(=O)c2cc(O)c(O)c(O)c2)c1)c1cc(O)c(O)c(OC(=O)c2cc(O)c(O)c(O)c2)c1` [Tannic Acid], the degeneracy turned out to be 100%.

The compound `Fc1ccc(C(c2ccc(F)cc2)N2CCN(C/C=C/c3ccccc3)CC2)cc1` [flunarizine] returned a degeneracy of 26.3%.

Consider `CN1CCc2c(c3ccccc3n2Cc2ccccc2)C1` [Mebhydrolin Naphthalenesulfonate], for which the degeneracy stood at 72%.

The compound `Cc1ccc(Nc2c(F)cccc2Cl)c(CC(=O)O)c1` [Lumiracoxib] came in with a degeneracy of 5%.

For the compound `Cc1ccc2c(Br)cc(Br)c(OC(=O)c3ccccc3)c2n1` [broxaldine], the degeneracy was 100%.

As for `CN[C@@H]1[C@H](O[C@H]2[C@H](O[C@H]3[C@H](O)[C@@H](O)[C@H](N=C(N)N)[C@@H](O)[C@@H]3N=C(N)N)O[C@@H](C)[C@]2(O)C=O)O[C@@H](CO)[C@H](O)[C@H]1O` [Streptomycin Sulfate], the degeneracy stood at 6.45%.

`Nc1nc(Cl)nc2c1ncn2[C@H]1C[C@H](O)[C@@H](CO)O1` [Cladribine]: the degeneracy was 0%.

In turn, `OCCOCCN1CCN(C2=Nc3ccccc3Sc3ccccc32)CC1` [Quetiapine] showed a degeneracy of 5.71%.

Compound `CC1(C)S[C@@H]2[C@H](NC(=O)[C@H](N)c3ccc(O)cc3)C(=O)N2[C@H]1C(=O)O` [Amoxicillin] showed a degeneracy of 0%.

In turn, `CCC(=O)O[C@@H](O[P@](=O)(CCCCc1ccccc1)CC(=O)N1C[C@H](C2CCCCC2)C[C@H]1C(=O)O)C(C)C` [Fosinopril] gave a degeneracy of 23.8%.

The compound `COc1cccc2c1C(=O)c1c(O)c3c(c(O)c1C2=O)C[C@@](O)(C(=O)CO)C[C@@H]3O[C@H]1C[C@H](N)[C@H](O)[C@H](C)O1` [Doxorubicin] returned a degeneracy of 0%.

In turn, `O=C(O)CC(O)(CC(=O)O)C(=O)O` [Citric Acid] showed a degeneracy of 5.66%.

In turn, `N=C(N)NC(=O)Cc1c(Cl)cccc1Cl` [Guanfacine Hydrochloride] came in with a degeneracy of 2.27%.

In turn, `CC1CNc2c(cccc2S(=O)(=O)N[C@@H](CCCNC(=N)N)C(=O)N2CC[C@@H](C)C[C@@H]2C(=O)O)C1` (stereo partly specified) [Argatroban] yielded a degeneracy of 5.41%.
